Reference: PubChem BioAssay AID2733 (National Center for Advancing Translational Sciences (NCATS), 2010)
Inconclusive means that the source gave no clear call. Such entries were picked first, then a sample of the others. A call without a number means that no potency is given here. Where the call is inconclusive, the potency comes from a doubtful curve fit. Activity calls are given as the source filed them. Calls come from the whole dose curve; as a rule, active = well fitted inhibition curve with a large enough effect; inconclusive = small, poorly fitted or top-dose-only effect; inactive = flat fitted curve, though single readings scatter.

Assay: High Content Assay for Compounds that inhibit the Assembly of the Perinucleolar Compartment: PC3M Cytotoxicity
Excerpt: High Content Assay for Compounds that inhibit the Assembly of the Perinucleolar Compartment
NIH Chemical Genomics Center [NCGC]
NIH Molecular Libraries Probe Centers Network [MLPCN]
Assay Submitter (PI): Sui Huang, Northwestern University, Feinberg School of Medicine, Cell and Molecular Biology, Chicago, Illinois.
The perinucleolar compartment (PNC) is a non-membrane-bound nuclear subdomain that is associated with but structurally distinct from the nucleolus. The PNC is a heritable trait, in which the number of PNCs per cell in daughter cells often mimics that of their mother cells. The PNC is heterogeneous in shape, is stable through interphase, disassembles during mitosis, and reassembles in early G1. The PNC is concentrated with newly synthesized RNA polymerase III (pol III) RNAs (MRP RNA, RNAse P H1 RNA, hY RNAs[hY1, 2, 5], Alu RNA, and SRP [7SL] RNA) and RNA binding proteins (nucleolin, PTB, CUG-BP, KSRP, Raver1, Raver2, and Rod).
Extensive in vitro studies have shown that the PNC is unique to tumor cells and preferentially forms in tumor cells derived from solid tissues. […]
5. Luminescencent signal was detected on a Viewlux CCD based imager (PerkinElmer) with a clear filter and a 30 second integration time. […]

SMILES: CCC(=NCc1cc(OC)cc(OC)c1)c1c(O)n(C)c(=O)n(C)c1=O
- Potency: inconclusive: 10 µM [inhibitor, full curve]

SMILES: Cc1ccc(C(O)(C(=O)NNC(=O)CN2CCN(C)CC2)c2ccc(C)cc2)cc1
- Potency: inactive
